{"source": "the supplement of paper PMC8728848", "experiment_in_all_cases": "glycan array binding signal (z-score within array); higher = stronger binding", "details_in_all_cases": "glycan notation: IUPAC condensed, linker removed", "key": {"[1]": {"molecular_target": "Gal(a1-3)Gal(b1-4)GlcNAc(b1-2)Man", "how_it_was_run": "(§1)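 The binding signal is a Z-score computed within each array and averaged over linkers. Arrays of the same protein sequence at different concentrations or buffers were also averaged together. Data originate from 3228 arrays in the Consortium for Functional Glycomics database, kept only where the protein sequence was available.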"}, "[2]": {"molecular_target": "Gal(a1-3)Gal(b1-4)GlcNAc(b1-2)Man(a1-3)[Gal(a1-3)Gal(b1-4)GlcNAc(b1-2)Man(a1-6)]Man(b1-4)GlcNAc(b1-4)GlcNAc", "how_it_was_run": "as §1"}, "[3]": {"molecular_target": "Gal(a1-3)Gal(b1-4)GlcNAc(b1-3)GalNAc", "how_it_was_run": "as §1"}, "[4]": {"molecular_target": "Gal(a1-3)Gal(b1-4)GlcNAc(b1-6)GalNAc", "how_it_was_run": "as §1"}, "[5]": {"molecular_target": "Gal(a1-3)Gal(b1-4)[Fuc(a1-3)]GlcNAc", "how_it_was_run": "as §1"}, "[6]": {"molecular_target": "Gal(a1-3)Gal(b1-4)[Fuc(a1-3)]GlcNAc(b1-2)Man(a1-3)[Gal(a1-3)Gal(b1-4)[Fuc(a1-3)]GlcNAc(b1-2)Man(a1-6)]Man(b1-4)GlcNAc(b1-4)GlcNAc", "how_it_was_run": "as §1"}, "[7]": {"molecular_target": "Gal(a1-3)GalNAc", "how_it_was_run": "as §1"}, "[8]": {"molecular_target": "Gal(a1-3)[Gal(a1-4)]Gal(b1-4)GlcNAc", "how_it_was_run": "as §1"}, "[9]": {"molecular_target": "Gal(a1-4)Gal(b1-3)GlcNAc(b1-2)Man(a1-3)[Gal(a1-4)Gal(b1-3)GlcNAc(b1-2)Man(a1-6)]Man(b1-4)GlcNAc(b1-4)GlcNAc", "how_it_was_run": "as §1"}, "[10]": {"molecular_target": "Gal(a1-4)Gal(b1-4)Glc", "how_it_was_run": "as §1"}, "[11]": {"molecular_target": "Gal(a1-4)Gal(b1-4)GlcNAc", "how_it_was_run": "as §1"}, "[12]": {"molecular_target": "Gal(a1-4)Gal(b1-4)GlcNAc(b1-2)Man(a1-3)[Gal(a1-4)Gal(b1-4)GlcNAc(b1-2)Man(a1-6)]Man(b1-4)GlcNAc(b1-4)GlcNAc", "how_it_was_run": "as §1"}, "[13]": {"molecular_target": "Gal(a1-4)Gal(b1-4)GlcNAc(b1-3)Gal(b1-4)Glc", "how_it_was_run": "as §1"}, "[14]": {"molecular_target": "Gal(a1-4)GlcNAc", "how_it_was_run": "as §1"}, "[15]": {"molecular_target": "Gal(a1-6)Glc", "how_it_was_run": "as §1"}, "[16]": {"molecular_target": "Gal(b1-2)Gal", "how_it_was_run": "as §1"}, "[17]": {"molecular_target": "Gal(b1-3)Gal", "how_it_was_run": "as §1"}, "[18]": {"molecular_target": "Gal(b1-3)Gal(b1-4)GlcNAc", "how_it_was_run": "as §1"}, "[19]": {"molecular_target": "Gal(b1-3)GalNAc", "how_it_was_run": "as §1"}, "[20]": {"molecular_target": "Gal(b1-3)GalNAc(a1-3)[Fuc(a1-2)]Gal(b1-4)Glc", "how_it_was_run": "as §1"}, "[21]": {"molecular_target": "Gal(b1-3)GalNAc(a1-3)[Fuc(a1-2)]Gal(b1-4)GlcNAc", "how_it_was_run": "as §1"}, "[22]": {"molecular_target": "Gal(b1-3)GalNAc(b1-3)Gal", "how_it_was_run": "as §1"}, "[23]": {"molecular_target": "Gal(b1-3)GalNAc(b1-3)Gal(a1-4)Gal(b1-4)Glc", "how_it_was_run": "as §1"}, "[24]": {"molecular_target": "Gal(b1-3)GalNAc(b1-4)Gal(b1-4)Glc", "how_it_was_run": "as §1"}, "[25]": {"molecular_target": "Gal(b1-3)GalNAc(b1-4)[Neu5Ac(a2-3)]Gal(b1-4)Glc", "how_it_was_run": "as §1"}, "[26]": {"molecular_target": "Gal(b1-3)GlcNAc", "how_it_was_run": "as §1"}, "[27]": {"molecular_target": "Gal(b1-3)GlcNAc(a1-3)Gal(b1-4)GlcNAc", "how_it_was_run": "as §1"}, "[28]": {"molecular_target": "Gal(b1-3)GlcNAc(a1-6)Gal(b1-4)GlcNAc", "how_it_was_run": "as §1"}, "[29]": {"molecular_target": "Gal(b1-3)GlcNAc(b1-2)Man", "how_it_was_run": "as §1"}, "[30]": {"molecular_target": "Gal(b1-3)GlcNAc(b1-2)Man(a1-3)[Gal(b1-3)GlcNAc(b1-2)Man(a1-6)]Man(b1-4)GlcNAc(b1-4)GlcNAc", "how_it_was_run": "as §1"}, "[31]": {"molecular_target": "Gal(b1-3)GlcNAc(b1-2)Man(a1-3)[Gal(b1-3)GlcNAc(b1-2)Man(a1-6)]Man(b1-4)GlcNAc(b1-4)[Fuc(a1-6)]GlcNAc", "how_it_was_run": "as §1"}, "[32]": {"molecular_target": "Gal(b1-3)GlcNAc(b1-2)Man(a1-3)[GlcNAc(b1-4)][Gal(b1-3)GlcNAc(b1-2)Man(a1-6)]Man(b1-4)GlcNAc(b1-4)GlcNAc", "how_it_was_run": "as §1"}, "[33]": {"molecular_target": "Gal(b1-3)GlcNAc(b1-2)[Gal(b1-3)GlcNAc(b1-6)]Man(a1-6)[Gal(b1-3)GlcNAc(b1-2)Man(a1-3)]Man(b1-4)GlcNAc(b1-4)GlcNAc", "how_it_was_run": "as §1"}, "[34]": {"molecular_target": "Gal(b1-3)GlcNAc(b1-3)Gal(b1-3)GlcNAc", "how_it_was_run": "as §1"}, "[35]": {"molecular_target": "Gal(b1-3)GlcNAc(b1-3)Gal(b1-4)Glc", "how_it_was_run": "as §1"}, "[36]": {"molecular_target": "Gal(b1-3)GlcNAc(b1-3)Gal(b1-4)GlcNAc", "how_it_was_run": "as §1"}, "[37]": {"molecular_target": "Gal(b1-3)GlcNAc(b1-3)Gal(b1-4)GlcNAc(b1-2)Man(a1-3)[Gal(b1-3)GlcNAc(b1-3)Gal(b1-4)GlcNAc(b1-2)Man(a1-6)]Man(b1-4)GlcNAc(b1-4)GlcNAc", "how_it_was_run": "as §1"}, "[38]": {"molecular_target": "Gal(b1-3)GlcNAc(b1-3)Gal(b1-4)GlcNAc(b1-2)[Gal(b1-3)GlcNAc(b1-3)Gal(b1-4)GlcNAc(b1-6)]Man(a1-6)[Gal(b1-3)GlcNAc(b1-3)Gal(b1-4)GlcNAc(b1-2)Man(a1-3)]Man(b1-4)GlcNAc(b1-4)[Fuc(a1-6)]GlcNAc", "how_it_was_run": "as §1"}, "[39]": {"molecular_target": "Gal(b1-3)GlcNAc(b1-3)Gal(b1-4)GlcNAc(b1-3)Gal(b1-4)GlcNAc(b1-2)[Gal(b1-3)GlcNAc(b1-3)Gal(b1-4)GlcNAc(b1-3)Gal(b1-4)GlcNAc(b1-6)]Man(a1-6)[Gal(b1-3)GlcNAc(b1-3)Gal(b1-4)GlcNAc(b1-3)Gal(b1-4)GlcNAc(b1-2)Man(a1-3)]Man(b1-4)GlcNAc(b1-4)[Fuc(a1-6)]GlcNAc", "how_it_was_run": "as §1"}, "[40]": {"molecular_target": "Gal(b1-3)GlcNAc(b1-3)Gal(b1-4)GlcNAc(b1-6)[Gal(b1-3)GlcNAc(b1-3)]Gal(b1-4)Glc", "how_it_was_run": "as §1"}, "[41]": {"molecular_target": "Gal(b1-3)GlcNAc(b1-3)Gal(b1-4)[Fuc(a1-3)]GlcNAc", "how_it_was_run": "as §1"}, "[42]": {"molecular_target": "Gal(b1-3)GlcNAc(b1-3)Gal(b1-4)[Fuc(a1-3)]GlcNAc(b1-6)[Gal(b1-3)GlcNAc(b1-3)]Gal(b1-4)Glc", "how_it_was_run": "as §1"}, "[43]": {"molecular_target": "Gal(b1-3)GlcNAc(b1-3)GalNAc", "how_it_was_run": "as §1"}, "[44]": {"molecular_target": "Gal(b1-3)GlcNAc(b1-6)Gal(b1-4)GlcNAc", "how_it_was_run": "as §1"}, "[45]": {"molecular_target": "Gal(b1-3)GlcNAc(b1-6)GalNAc", "how_it_was_run": "as §1"}}, "note": "This is one part of the list."}
{"binder": "Nc3LysM-2 (protein) AHVLQARQSVSCDFATAANTGDTCASFAAAWGITEAAFAKLNPGVSCPGNLIAGSEYCVIGTVSTGAPTTTKAATTSTTPPTTTTTTKATTLSTSTTSVSPTGPSPQMPSITSTCNKFYQVQSGDGCWSIEQAQGVSASDFMAWNKAVDAQCDNLWLGYYVCVGVKGGSSPPPTTTTKPASSSAPTPQMPNTVSNCKKFHKVVSGDGCWAIEQAAGISASDFAKWNPYVDAACDNLWLGYYVCIGV", "values": [{"measurement": "glycan array binding signal (z-score)", "setting": "[1]", "value": -0.456}, {"measurement": "glycan array binding signal (z-score)", "setting": "[2]", "value": 0.002}, {"measurement": "glycan array binding signal (z-score)", "setting": "[3]", "value": -1.6}, {"measurement": "glycan array binding signal (z-score)", "setting": "[4]", "value": -1.26}, {"measurement": "glycan array binding signal (z-score)", "setting": "[5]", "value": -1.39}, {"measurement": "glycan array binding signal (z-score)", "setting": "[6]", "value": -0.056}, {"measurement": "glycan array binding signal (z-score)", "setting": "[7]", "value": 0.707}, {"measurement": "glycan array binding signal (z-score)", "setting": "[8]", "value": -1.03}, {"measurement": "glycan array binding signal (z-score)", "setting": "[9]", "value": -0.185}, {"measurement": "glycan array binding signal (z-score)", "setting": "[10]", "value": 1.39}, {"measurement": "glycan array binding signal (z-score)", "setting": "[11]", "value": -0.363}, {"measurement": "glycan array binding signal (z-score)", "setting": "[12]", "value": 0.285}, {"measurement": "glycan array binding signal (z-score)", "setting": "[13]", "value": -0.021}, {"measurement": "glycan array binding signal (z-score)", "setting": "[14]", "value": 0.991}, {"measurement": "glycan array binding signal (z-score)", "setting": "[15]", "value": 0.44}, {"measurement": "glycan array binding signal (z-score)", "setting": "[16]", "value": -0.601}, {"measurement": "glycan array binding signal (z-score)", "setting": "[17]", "value": -1.49}, {"measurement": "glycan array binding signal (z-score)", "setting": "[18]", "value": -0.043}, {"measurement": "glycan array binding signal (z-score)", "setting": "[19]", "value": -1.27}, {"measurement": "glycan array binding signal (z-score)", "setting": "[20]", "value": 1.21}, {"measurement": "glycan array binding signal (z-score)", "setting": "[21]", "value": -1.14}, {"measurement": "glycan array binding signal (z-score)", "setting": "[22]", "value": 1.15}, {"measurement": "glycan array binding signal (z-score)", "setting": "[23]", "value": -0.143}, {"measurement": "glycan array binding signal (z-score)", "setting": "[24]", "value": 1.81}, {"measurement": "glycan array binding signal (z-score)", "setting": "[25]", "value": -0.127}, {"measurement": "glycan array binding signal (z-score)", "setting": "[26]", "value": 0.069}, {"measurement": "glycan array binding signal (z-score)", "setting": "[27]", "value": -0.723}, {"measurement": "glycan array binding signal (z-score)", "setting": "[28]", "value": 0.159}, {"measurement": "glycan array binding signal (z-score)", "setting": "[29]", "value": -1.22}, {"measurement": "glycan array binding signal (z-score)", "setting": "[30]", "value": 1.47}, {"measurement": "glycan array binding signal (z-score)", "setting": "[31]", "value": -1.79}, {"measurement": "glycan array binding signal (z-score)", "setting": "[32]", "value": 0.501}, {"measurement": "glycan array binding signal (z-score)", "setting": "[33]", "value": -0.613}, {"measurement": "glycan array binding signal (z-score)", "setting": "[34]", "value": -0.944}, {"measurement": "glycan array binding signal (z-score)", "setting": "[35]", "value": -0.118}, {"measurement": "glycan array binding signal (z-score)", "setting": "[36]", "value": 0.183}, {"measurement": "glycan array binding signal (z-score)", "setting": "[37]", "value": -0.38}, {"measurement": "glycan array binding signal (z-score)", "setting": "[38]", "value": 2.73}, {"measurement": "glycan array binding signal (z-score)", "setting": "[39]", "value": 1.34}, {"measurement": "glycan array binding signal (z-score)", "setting": "[40]", "value": 0.076}, {"measurement": "glycan array binding signal (z-score)", "setting": "[41]", "value": -0.806}, {"measurement": "glycan array binding signal (z-score)", "setting": "[42]", "value": 0.403}, {"measurement": "glycan array binding signal (z-score)", "setting": "[43]", "value": -0.034}, {"measurement": "glycan array binding signal (z-score)", "setting": "[44]", "value": -1.49}, {"measurement": "glycan array binding signal (z-score)", "setting": "[45]", "value": 0.973}]}
